In PubChem BioAssay AID330 (DTP/NCI, 2004) one finds survivor count and T/C data, which are given here for 31 molecules.

The list does not hold the whole screen: it is rich in T/C values a quarter to a half above the control, in often repeated tests (any T/C) and in doses without a T/C. Other doses and runs of a compound stand elsewhere. T/C is the treated group as % of the vehicle group. Some doses have a count of surviving animals in place of a T/C: the source files T/C as zero there, which appears to mark a toxic dose or a test without result, not a measured value. Some doses without a T/C left all or most animals alive at the check, yet need not have been tolerated: survival well below the control is almost never listed, so the zero probably covers shortened survival too. Counts of survivors are from the toxicity check (mostly the fifth day) where no day follows; animals may have died later. Schedule codes are those of the source, taken here to give the interval after Q, in days (D) or hours (H), and the number of doses after X. Some doses were run more than once; their values stand side by side, smallest first. For survival time, this PubChem deposit counts one and a half times the control or more as active, and values a quarter to a half above the control carry no call in these data; other NCI protocols may use other cut-offs. Some T/C values are followed by the survivors on the day toxicity was checked, most often the fifth; where none is given, no animal had died by that day.

The subject of the assay is P388 leukemia ip, CD2F1 mice, survival T/C. Briefly: NCI In Vivo Anticancer Drug Screen. Data for tumor model P388 Leukemia (intraperitoneal) in CD2F1 (CDF1) mice. As to conditions: T/C endpoint: median survival time, higher T/C = longer survival.
The mark [1] stands for this setting: dose: 200.0 mg/kg/injection, schedule: Q01DX009 (ip), vehicle: saline.
Setting [2] is: dose: 60.0 mg/kg/injection, schedule: Q01DX005 (ip), vehicle: Klucel (hydroxypropylcellulose) (HPC).
Where [3] appears, read: dose: 120.0 mg/kg/injection, schedule: Q01DX005 (ip), vehicle: Klucel (hydroxypropylcellulose) (HPC).
Where [4] appears, read: dose: 240.0 mg/kg/injection, schedule: Q01DX005 (ip), vehicle: Klucel (hydroxypropylcellulose) (HPC).
Where [5] appears, read: dose: 50.0 mg/kg/injection, schedule: Q01DX009 (ip), vehicle: saline with Tween-80.
[6] abbreviates: dose: 200.0 mg/kg/injection, schedule: Q01DX009 (ip), vehicle: saline with Tween-80.
Where [7] appears, read: dose: 12.5 mg/kg/injection, schedule: Q01DX009 (ip), vehicle: Klucel (hydroxypropylcellulose) (HPC).
[8] abbreviates: dose: 25.0 mg/kg/injection, schedule: Q01DX009 (ip), vehicle: Klucel (hydroxypropylcellulose) (HPC).
The mark [9] stands for this setting: dose: 100.0 mg/kg/injection, schedule: Q01DX009 (ip), vehicle: saline.
Where [10] appears, read: dose: 200.0 mg/kg/injection, schedule: Q01DX005 (ip), vehicle: Klucel (hydroxypropylcellulose) (HPC).
Where [11] appears, read: dose: 6.25 mg/kg/injection, schedule: Q01DX009 (ip), vehicle: Klucel (hydroxypropylcellulose) (HPC).
[12] abbreviates: dose: 200.0 mg/kg/injection, schedule: Q01DX005 (ip), vehicle: saline with Tween-80.

Consider `OCCSC(=S)Nc1ccc(Cl)c(Cl)c1`, for which, under setting [1], the survivor count is 4 of 6.
As for `CCCCN1CCC2(C)c3cc(O)ccc3CC1C2CC` (centres undefined), the survivor count reads like this: under setting [2], 6 of 6; under setting [3], 6 of 6; under setting [4], 4 of 6.
As to `CC(NNC(=S)N1CCN(c2ccccn2)CC1)c1cc2ccccc2cn1` (centres undefined), the survivor count reads like this: (dose: 100.0 mg/kg/injection, schedule: Q04DX003 (ip), vehicle: Klucel (hydroxypropylcellulose) (HPC)) 6 of 6; (dose: 200.0 mg/kg/injection, schedule: Q04DX003 (ip), vehicle: Klucel (hydroxypropylcellulose) (HPC)) 6 of 6.
Turning to `Nc1nc(N)c2cc(Sc3ccc(Cl)cc3)ccc2n1`, the T/C under setting [5] was 137 and 141 % of control. In addition, under setting [6], the survivor count is given as 6 of 6.
For `CC(=O)[O][Hg][c]1c(N)c(Cl)cc(C)c1F`, the survivor count under setting [7] is 3 of 5 and the survivor count under setting [8] is recorded as 0 of 6.
For the molecule `CCCCCCCCCCCCOC(=O)CN=C=O`, the survivor count under setting [9] was 6 of 6.
For `C=C(C)C1CC=C(C)C(OCCN(CC)CC)C1` (centres undefined), the survivor count under setting [10] is recorded as 0 of 6.
Turning to `CCC[CH2][Sn]1([CH2]CCC)[O]CC[S]1`, the T/C (dose: 3.12 mg/kg/injection, schedule: Q01DX009 (ip), vehicle: Klucel (hydroxypropylcellulose) (HPC)) was 129 % of control; the T/C under setting [11] was 106 and 114 % of control; the T/C under setting [7] is 109 % of control [5 of 6 alive]; the T/C under setting [8] was 132 % of control. In addition, the survivor count is, setting by setting: under setting [11], 0 of 6, 2 of 6, 4 of 6, 6 of 6; under setting [7], 0 of 6, 4 of 6, 5 of 6, 6 of 6; under setting [8], 0 of 6; (dose: 50.0 mg/kg/injection, schedule: Q01DX009 (ip), vehicle: Klucel (hydroxypropylcellulose) (HPC)) 0 of 6.
Take `CC(NC(=O)C(Cc1ccc(OC(=O)OCc2ccccc2)cc1)NC(=O)OCc1ccccc1)C(=O)OCc1ccccc1` (centres undefined): the survivor count under setting [12] is listed as 5 of 6.
Consider `Cc1c(COC(=O)NC2CCCCC2)c(COC(=O)NC2CCCCC2)c2n1CCc1ccccc1-2`, for which the survivor count was 4 of 6 (dose: 100.0 mg/kg/injection, schedule: Q01DX009 (ip), vehicle: distilled water + Tween-80) and 3 of 6 (dose: 200.0 mg/kg/injection, schedule: Q01DX009 (ip), vehicle: distilled water + Tween-80).
As for `O=C1NC(=O)NC(C(=O)O)N1`, the survivor count (dose: 400.0 mg/kg/injection, schedule: Q01DX009 (ip), vehicle: Klucel (hydroxypropylcellulose) (HPC)) is listed as 1 of 6.
Turning to `BrC1CC(Br)c2c1c1c(c3c2C(Br)CC3Br)C(Br)CC1Br` (centres undefined), the T/C reads like this: (dose: 25.0 mg/kg/injection, schedule: Q01DX009 (ip), vehicle: saline with Tween-80) 127 % of control; under setting [5], 147 % of control.
Consider `O=[N+]([O-])O.[Mn].c1ccc(/C2=c3\cc/c([n-]3)=C(\c3ccccc3)c3ccc([n-]3)/C(c3ccccc3)=c3/cc/c([n-]3)=C(\c3ccccc3)c3ccc2[n-]3)cc1`, for which the survivor count (dose: 200.0 mg/kg/injection, schedule: Q04DX002 (ip), vehicle: Klucel (hydroxypropylcellulose) (HPC)) is reported as 6 of 6.
As to `Cn1c(=S)[nH]c2scc(-c3ccccc3)c2c1=O`, the survivor count (dose: 120.0 mg/kg/injection, schedule: Q01DX005 (ip), vehicle: saline with Tween-80) is 6 of 6.
For `Cc1cccc(OCC(O)CNC(C)(C)C)c1C` (centres undefined), the survivor count under setting [6] was 0 of 6.
Take `CCC1OCCN1C(C)C` (centres undefined): where the note is “dose: 400.0 mg/kg/injection, schedule: Q04DX003 (ip), vehicle: saline with Tween-80”, the survivor count was 3 of 6.
With `CC1=C(C)C(=O)C2=C(OCCCO2)C1=O`, the survivor count reads like this: under setting [2], 4 of 6; under setting [3], 0 of 6; under setting [4], 0 of 6.
Consider `N#Cc1ccc(NN=NCCCCCl)cc1`, for which the survivor count runs as follows: (dose: 25.0 mg/kg/injection, schedule: Q01DX005 (ip), vehicle: distilled water + Tween-80) 5 of 6; (dose: 100.0 mg/kg/injection, schedule: Q01DX005 (ip), vehicle: distilled water + Tween-80) 2 of 6; (dose: 200.0 mg/kg/injection, schedule: Q01DX005 (ip), vehicle: distilled water + Tween-80) 1 of 6.
Turning to `Cc1ccc(=O)c2ccsc2c1`, for the setting “dose: 400.0 mg/kg/injection, schedule: Q04DX003 (ip), vehicle: Klucel (hydroxypropylcellulose) (HPC)”, the survivor count is on record as 0 of 6.
Turning to `C[n+]1cccc(SC2CCC3CC4CC3C2C4)c1` (centres undefined), under setting [5], the survivor count is 5 of 6.
On to `O=C(CCCN1CCC(O)(c2cccc(C(F)(F)F)c2)CC1)c1ccc(F)cc1`, for which the survivor count (dose: 150.0 mg/kg/injection, schedule: Q04DX003 (ip), vehicle: Klucel (hydroxypropylcellulose) (HPC)) is given as 0 of 6.
As to `O=C1Nc2ccccc2/C1=N/N1C(=O)CSC1=S`, the survivor count is reported as 6 of 6 (dose: 7.5 mg/kg/injection, schedule: Q01DX005 (ip), vehicle: Klucel (hydroxypropylcellulose) (HPC)); 3 of 6 (dose: 15.0 mg/kg/injection, schedule: Q01DX005 (ip), vehicle: Klucel (hydroxypropylcellulose) (HPC)); 0 of 6 (dose: 30.0 mg/kg/injection, schedule: Q01DX005 (ip), vehicle: Klucel (hydroxypropylcellulose) (HPC)); 0 of 6 under setting [2]; 0 of 6 under setting [3]; 0 of 6 under setting [4].
Consider `O=c1[nH]cc(Cn2cccc3c(=O)ncnc2-3)c(=O)[nH]1`, for which the survivor count (dose: 400.0 mg/kg/injection, schedule: Q01DX001 (ip), vehicle: suspension in saline) is listed as 3 of 6.
As for `O=C(N1CCC(CCN2CCCC2)CC1)C(O)(c1ccccc1)c1ccccc1`, the survivor count is on record as 1 of 6 (dose: 200.0 mg/kg/injection, schedule: Q04DX002 (ip), vehicle: saline) and 0 of 6 (dose: 400.0 mg/kg/injection, schedule: Q04DX002 (ip), vehicle: saline).
On to `COc1ccc(OC)c(C2=CC(=O)C=CC2=O)c1`, for which the survivor count (dose: 50.0 mg/kg/injection, schedule: Q01DX005 (ip), vehicle: saline with Tween-80) was 2 of 6; the survivor count (dose: 100.0 mg/kg/injection, schedule: Q01DX005 (ip), vehicle: saline with Tween-80) is 0 of 6; the survivor count under setting [12] is listed as 0 of 6.
With `O=c1[nH]cccc1[N+](=O)[O-]`, the T/C (dose: 50.0 mg/kg/injection, schedule: Q01DX009 (ip), vehicle: saline) is 93, 95, 101, 107 % of control; the T/C under setting [9] was 91, 99, 103, 106 % of control; the T/C under setting [1] is given as 92, 101, 105, 110 % of control; the T/C (dose: 400.0 mg/kg/injection, schedule: Q01DX009 (ip), vehicle: saline) was 92, 94 [5 of 6 alive], 100 [5 of 6 alive], 111 % of control.
Take `O=C1NC(=O)C(=Cc2ccc(Cl)cc2)C(=O)N1`: the survivor count under setting [10] is 0 of 6.
For `CCOC(=O)C1CC1c1c(C)c2cc3[nH]c(cc4nc(cc5nc(cc1[nH]2)C(C)=C5CCC(=O)OC)C(CCC(=O)OC)=C4C)c(C)c3C1CC1C(=O)OCC` (centres undefined), the survivor count under setting [12] is reported as 6 of 6.
Consider `CCS(=O)(=O)[O][Sn]([CH2]C)([CH2]C)[O]S(=O)(=O)CC`, for which, where the note is “dose: 12.5 mg/kg/injection, schedule: Q04DX003 (ip), vehicle: saline”, the T/C is 125 and 140 % of control. In addition, the survivor count (dose: 25.0 mg/kg/injection, schedule: Q04DX003 (ip), vehicle: saline) was 0 of 6; the survivor count (dose: 100.0 mg/kg/injection, schedule: Q04DX003 (ip), vehicle: saline) is 0 of 6; the survivor count (dose: 200.0 mg/kg/injection, schedule: Q04DX003 (ip), vehicle: saline) is on record as 0 of 6; the survivor count (dose: 400.0 mg/kg/injection, schedule: Q04DX003 (ip), vehicle: saline) is 0 of 6.
Consider `c1ccc(-c2nc[nH]c2-c2ccccc2)cc1`, for which the survivor count (dose: 50.0 mg/kg/injection, schedule: Q01DX009 (ip), vehicle: suspension in saline) was 4 of 6.
Turning to `O=[N+]([O-])c1ccc2[nH]c3cnccc3c2c1`, the survivor count (dose: 200.0 mg/kg/injection, schedule: Q01DX009 (ip), vehicle: other) is reported as 5 of 6.
